In paper PMC6363796, “Identification and characterization of a direct activator of a gene transfer agent”:

Tests used:
Assay in all cases: EMSA
[1] = biological target: T1, CtrA (Rhodobacter capsulatus) (UniProt D5ATW9); conditions: 80 nM Cy5-dsDNA, 25 mM HEPES pH 8.0, 50 mM K-glutamate, 50 mM MgSO4, 1 mM DTT, 0.1 mM EDTA, 0.05% Triton X-100, 1 ug poly dI:dC, 4% glycerol, 30 C 15 min, recombinant protein, protein details: His6 (pEHisTEV, N-terminal)
T1 sequence (looked up, limits assumed): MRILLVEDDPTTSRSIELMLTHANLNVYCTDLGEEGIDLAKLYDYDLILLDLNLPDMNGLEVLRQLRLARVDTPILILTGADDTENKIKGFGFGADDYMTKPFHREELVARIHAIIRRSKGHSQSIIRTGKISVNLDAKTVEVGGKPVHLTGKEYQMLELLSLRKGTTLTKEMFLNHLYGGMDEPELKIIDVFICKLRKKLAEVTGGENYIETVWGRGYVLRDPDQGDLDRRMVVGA

[2] = biological target: T2, CtrA D51E (Rhodobacter capsulatus) (UniProt D5ATW9); conditions: low affinity; 80 nM Cy5-dsDNA, 25 mM HEPES pH 8.0, 50 mM K-glutamate, 50 mM MgSO4, 1 mM DTT, 0.1 mM EDTA, 0.05% Triton X-100, 1 ug poly dI:dC, 4% glycerol, 30 C 15 min; recombinant protein; label: 5'-Cy5 (one strand)
T2 sequence (looked up, limits assumed): T1 sequence (looked up, limits assumed) with D51E

[3] = biological target: T3, GafA (Rhodobacter capsulatus) (UniProt D5AUH1); conditions: up to 4 uM GafA, legend says unshifted, although 50 bp pGTA2 is bound; 80 nM Cy5-dsDNA, 25 mM HEPES pH 8.0, 50 mM K-glutamate, 50 mM MgSO4, 1 mM DTT, 0.1 mM EDTA, 0.05% Triton X-100, 1 ug poly dI:dC, 4% glycerol, 30 C 15 min; recombinant protein; label: 5'-Cy5; probe letters rebuilt from the primers and the genome
T3 sequence (looked up, limits assumed): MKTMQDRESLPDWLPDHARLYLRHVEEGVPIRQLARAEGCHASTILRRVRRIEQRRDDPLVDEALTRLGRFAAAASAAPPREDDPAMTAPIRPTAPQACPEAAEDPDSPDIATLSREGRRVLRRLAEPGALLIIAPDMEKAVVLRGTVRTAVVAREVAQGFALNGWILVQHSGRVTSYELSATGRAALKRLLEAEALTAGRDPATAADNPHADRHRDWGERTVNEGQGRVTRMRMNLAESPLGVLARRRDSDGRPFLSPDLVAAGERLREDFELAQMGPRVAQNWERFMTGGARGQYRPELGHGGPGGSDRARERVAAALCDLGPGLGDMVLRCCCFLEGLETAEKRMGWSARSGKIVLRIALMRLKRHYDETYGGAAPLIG

| Sequence | binding result ([1]; no detectable binding at up to 8000 nM protein, label: 5'-Cy5 (one strand)) | binding result [2] | binding result ([1]; up to 4 uM CtrA, label: 5'-Cy5, probe letters rebuilt from the primers and the genome) | binding result [3] |
| --- | --- | --- | --- | --- |
| GAACGGAATCCTGCGACAGTAACTACGTGTTAACCATTTGGTGACAAGGT (double strand) [pCtrA_50 (ctrA promoter)] | no binding | binds more weakly |  |  |
| GGGATGCGGCTGCAGACCGATCCGGCGGTGATTTACGGCGTGACCAAGGGGCAGGGCGTGCTGGGGCGCGGTTTGCGGCAATCGGAGCTGCGGCGCGAGACGCCCTATAACACCTATGTCATCGACGGGCTGCCGCCGGGGCCGATCTGCAACCCCGGGACGCAGGCGATCCGCGCGGCGCTGAACCCTGATTCGACGAAGTTCCTGTATTTCGTGGCGGACGGCACCGGCGGGCATGCTTTTGCCGAGACGATCACCGAGCATAACCGGAACGTCGCGCGCTGGCGGGAGATCGAGAAGACCCAAAAGCAGGGCGCAAGCGACGGAAACTGAAGGAAAACCCCGGCTTCGTCCGGGGTTTTTTCTTTTCAGCGGGTGCAACCCTGAATATAGCACTTGACTTTGCGAACGCTTCAAGGTAGAGATAAGGCATGCTAGGAGAGGTGGGCAAGCGCCGCGGGTGACCGTGTGCGCTTTTTTCATTTCGCTCGTGCGGACAGGCATGAGAGGCGGGTCACGCAAGACATGGACATGGGGTTCAAGGGTGGGGACGCTCCTCCGGTGGATTTGCTGGAGGAGACGGAGGAGCTTTATCGGGAAATTGCCGGGGAACTGGCCCTGGCGATGGTCAGC (double strand) [pGTA full-length RcGTA promoter, 633 bp] |  |  | no binding | no binding |

Residue numbers refer to the chain shown, from its start. For at least one entry, the source does not settle the construct or the ends of the probe. For some of these results: No signal at the amounts used counts as a negative. Tags and fusion partners may be left off the protein sequences shown. For some of these results: Weaker means in comparison with the reference protein, sequence or condition of that experiment.
